Source: the supplement of paper PMC11732987, “Enantioselective OTUD7B fragment discovery through chemoproteomics screening and high-throughput optimisation” (Communications Chemistry, 2025)
The list shows a part of the results. The data scatter; read single values as rough.

Molecular target: T1, LMNA C570 (UniProt P02545)
T1 sequence (whole entry): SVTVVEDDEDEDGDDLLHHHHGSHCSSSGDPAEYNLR
Test: log2 mean competition ratio of IA-DTB cysteine labelling (DMSO/compound) (log2 ratio); higher = stronger cysteine engagement by compound
Conditions: 50 µM; treatment time: 4 h; cell line lysate: HEK293T
Experimental: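 IA-DTB competitive cysteine chemoproteomics in HEK293T RIPA lysate. Lysates were treated with compound 29 or 30 at 50 or 200 µM for 4 h, then IA-DTB (500 µM, 1 h), trypsin-digested, NeutrAvidin-enriched and analysed by diaPASEF. Competition ratio = intensity DMSO / intensity compound (n=4 treated, n=64 DMSO); binding: mean log2 CR ≥ 1 and p ≤ 0.05 plus QC filters. Target is the cysteine site.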

| Compound | log2 mean competition ratio |
| --- | --- |
| O=C(CCl)N[C@@H]1CCCc2ccccc21 | -0.365 |
| O=C(CCl)N[C@H]1CCCc2ccccc21 | 0.256 |

Same assay, conditions: 200 µM; treatment time: 4 h; cell line lysate: HEK293T

| Compound | log2 mean competition ratio |
| --- | --- |
| O=C(CCl)N[C@@H]1CCCc2ccccc21 | 0.913 |
| O=C(CCl)N[C@H]1CCCc2ccccc21 | -0.307 |
